Laboratory results: paper PMC12767022

Tests used:
[1] = biological target: GST‐ETS1, glutathione S‐transferase‐tagged ETS1 (Metarhizium robertsii); assay: pull-down; called IP or Co‐IP in the paper; purified GST‐, MBP‐ and His‐tagged proteins from E. coli; blots of input and output; both purified
[2] = biological target: GST‐ETS6, glutathione S‐transferase‐tagged ETS6 (Metarhizium robertsii); assay: as above

B1: MBP‐Spz, maltose‐binding protein‐tagged Spz (ligand, UniProt P48607 26-326)
chain: KEYERIIKELFTITNDEGVVLFNTSADSAPFMPIPTQHDDPTQKQKQNQNQSPIPETNRHYHQYHSLIQPDQYFKVQRSPNGKLNLVFNDTFVSLQRTDTEVQSEQPIPPRHPSDTFVFPDSPIAKYRPPQSPARPLRNDTKEHNPCAKDESQHLRNFCTNVDDYPDLSGLTHKLKNNFAKFFSNDLQPTDVSSRVGGSDERFLCRSIRKLVYPKKGLRADDTWQLIVNNDEYKQAIQIEECEGADQPCDFAANFPQSYNPICKQHYTQQTLASIKSDGELDVVQNSFKIPSCCKCALKTG
Q: How did the binding [1] turn out when B1 was run?
A: Its binding is “binds”.

Q: What about the binding [2] of the same binder?
A: Its binding is “binds”.

Results are given in words; binding and its absence hold for the method and conditions named. Binding can be weak; no strength is given. Where a sequence is shown, tags or fusion partners need not be part of it.
